Laboratory results reported in patent US20190256599A1 (GlaxoSmithKline, published 2019).
No constants are given. Whether binding was seen depends on the method and setting. Some binding calls cover weakened binding; strength is not graded here. For part of these data: Tags and fused reporters may be left off the sequences shown.

Experiments:
human ICOS on cells [1] = molecular target: T1, human ICOS on cells (human, UniProt Q9Y6W8 21-199); experiment: confocal microscopy, Alexa488-labelled H2L5 IgG4PE on primary CD4+ T cells, time after addition of the antibody
T1 sequence (looked up): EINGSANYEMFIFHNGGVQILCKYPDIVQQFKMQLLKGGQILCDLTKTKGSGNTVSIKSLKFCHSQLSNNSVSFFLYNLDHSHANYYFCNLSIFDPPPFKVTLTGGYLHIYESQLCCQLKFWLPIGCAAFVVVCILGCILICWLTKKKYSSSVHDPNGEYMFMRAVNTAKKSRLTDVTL

human ICOS on cells [2] = molecular target: T1, human ICOS on cells; experiment: flow cytometry on activated human CD4+ and CD8+ T cells
[3] = molecular target: T2, rabbit Fc-tagged recombinant human ICOS (human, UniProt Q9Y6W8 21-140, limits assumed); experiment: BIAcore target capture, legend of FIG. 9A
T2 construct: Generated in-house; also called dimeric human ICOS; Fc-fusion version of the recombinant ICOS protein
T2 sequence (looked up): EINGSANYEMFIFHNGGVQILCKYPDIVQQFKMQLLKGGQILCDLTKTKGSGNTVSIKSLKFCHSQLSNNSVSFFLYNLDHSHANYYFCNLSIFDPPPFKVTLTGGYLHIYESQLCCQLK

[4] = molecular target: T3, recombinant ICOS protein (R&D Systems) (human, UniProt Q9Y6W8 21-141, limits assumed); experiment: MSD competition assay on plate-coated ICOS; blocked ligand: human ICOS ligand at 1 ug/mL
T3 construct: Bought; also called ICOS receptor
T3 sequence (looked up): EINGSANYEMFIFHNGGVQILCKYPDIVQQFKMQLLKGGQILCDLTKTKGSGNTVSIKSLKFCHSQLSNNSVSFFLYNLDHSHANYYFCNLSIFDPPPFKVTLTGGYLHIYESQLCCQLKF
Experimental: MSD plates were incubated overnight at 4° C. with 10 μg/mL recombinant ICOS protein (R&D Systems) diluted in PBS. […] Sulfo-tagged streptavidin at 10 μg/mL in Diluent 100 was used for detection of the biotinylated ligand. All incubations were at room temperature for one hour on a plate shaker unless otherwise noted. The plates were read immediately following MSD Read buffer addition on a MSD MESO Quick Plex SQ 120 and data analyzed on MSD workbench software (Meso-Scale, Rockville, Md.).

human ICOS on cells [5] = molecular target: T1, human ICOS on cells; experiment: time-lapse confocal microscopy, AlexaFluor488-labelled H2L5 IgG4PE 3 µg/mL on anti-CD3 pre-stimulated human T cells in co-culture with dendritic cells
human ICOS on cells [6] = molecular target: T1, human ICOS on cells; experiment: flow cytometry on naive and activated CD4+ and CD8+ T cells from healthy donor PBMC
[7] = molecular target: T2, rabbit Fc-tagged recombinant human ICOS; experiment: Biacore (SPR) sensorgrams with fitted curves, dimeric human ICOS
human ICOS on cells [8] = molecular target: T1, human ICOS on cells; experiment: flow cytometry, H2L5 IgG4PE 20 ug/mL on CD4+ and CD8+ T cells of healthy donor PBMC, detected with anti-human IgG kappa light chain FITC
human ICOS on cells [9] = molecular target: T1, human ICOS on cells; experiment: legend of FIGS. 43A-43B
human ICOS on cells [10] = molecular target: T1, human ICOS on cells; experiment: confocal microscopy, fluorescently labelled H2L5 on primary human CD3+ T cells
[11] = molecular target: T2, rabbit Fc-tagged recombinant human ICOS; experiment: quantitative BIAcore target capture approach
human ICOS on cells [12] = molecular target: T1, human ICOS on cells; experiment: flow cytometry on naive and CD3/CD28 activated CD4 and CD8 T cells
human ICOS on cells [13] = molecular target: T1, human ICOS on cells; experiment: confocal microscopy, AlexaFluor488-labelled H2L5 on activated primary human CD3+ T cells
[14] = molecular target: T3, recombinant ICOS protein (R&D Systems); experiment: MSD competition assay: plate-coated recombinant ICOS, H2L5 IgG4PE titrated, then 1 µg/mL human ICOS ligand (B7-H2) detected with biotinylated anti-ICOS-L and sulfo-tag streptavidin
human ICOS on cells [15] = molecular target: T1, human ICOS on cells; experiment: flow cytometry on human T cells (FIG. 43A)

binding (human ICOS on cells [1]): binds
binding (human ICOS on cells [2]): binds
binding [3]: binds
binding [4]: binds
binding (human ICOS on cells [5]): binds
binding (human ICOS on cells [6]): binds
binding [7]: binds
binding (human ICOS on cells [8]): binds
binding (human ICOS on cells [9]): binds
binding (human ICOS on cells [10]): binds
binding [11]: binds
binding (human ICOS on cells [12]): binds
binding (human ICOS on cells [13]): binds
binding [14]: binds
binding (human ICOS on cells [15]): binds
B1: H2L5 IgG4PE (antibody, V domains shown)
VH: QVQLVQSGAEVKKPGSSVKVSCKASGYTFTDYAMHWVRQAPGQGLEWMGLISIYSDHTNYNQKFQGRVTITADKSTSTAYMELSSLRSEDTAVYYCGRNNYGNYGWYFDVWGQGTTVTVSS
VL: EIVLTQSPATLSLSPGERATLSCSASSSVSYMHWYQQKPGQAPRLLIYDTSKLASGIPARFSGSGSGTDYTLTISSLEPEDFAVYYCFQGSGYPYTFGQGTKLEIK
notes: Humanized variant of murine clone 422.2; human IgG4 with S228P and L235E (EU numbering), called IgG4PE; also called H2L5 hIgG4PE; ICOS IgG4PE
